Reference: PMC9601230 (mBio, 2022)
pKd: −log10 of the molar value. Where a protein sequence is shown, tags need not be part of it. The exact form of at least one protein or probe is not confirmed. A weaker result is weaker than the reference pair of the same experiment. At least one verdict rests on a figure or table, not on a statement of the authors.

Molecular target: T1, DrRuvC (Deinococcus radiodurans) (UniProt Q9RX75)
T1 sequence (looked up): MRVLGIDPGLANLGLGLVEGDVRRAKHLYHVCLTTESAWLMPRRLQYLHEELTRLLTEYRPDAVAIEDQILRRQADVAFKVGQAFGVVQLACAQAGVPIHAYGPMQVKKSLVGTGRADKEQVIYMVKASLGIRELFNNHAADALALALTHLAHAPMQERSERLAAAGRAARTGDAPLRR
Test: EMSA
Conditions: EMSA: 100 nM 6-FAM substrate, 50 mM Tris-HCl pH 8.0, 125 mM NaCl, 10 ug/mL BSA, 1 mM TCEP, 5% glycerol, 30 C 10 min, 5% native PAGE in 0.5x Tris-borate, recombinant protein, residues 1-179, protein details: N-terminal His-MBP-TEV, removed by TEV, label: 5'-6-FAM on J31-1; for pKd: only nonspecific complexes; for binding result: folded or branched DNA

Sequence: GCTAGCCACAGCCATTCGTACGATTGCGGGA / TCCCGCAATCGTATTTTTGGCTGTGGCTAGC [bulge]
- pKd: < 5.96

Sequence: GCTAGCCACAGCCATTCGTACGATTGCGGGA / ATGGCATCTGCAGGCAATGGCTGTGGCTAGC [splayed duplex-b]
- binding result: binds more weakly

Sequence: GCTAGCCACAGCCATTCGTACGATTGCGGGA (double strand) [duplex]
- pKd: < 5.96

Sequence: GCTAGCCACAGCCATTCGTACGATTGCGGGA / TCCCGCAATCGTCCGTTTCCGAGCACGATCT [splayed duplex-a]
- binding result: binds more weakly
